Source: PubChem BioAssay AID1439 (NMMLSC, 2008)
Out of some 220,000 compounds screened, about 770 (0.35%) were called active. Inconclusive means that the source gave no clear call. Such entries were picked first, then a sample of the others. No stated cut-off is given here; in the data, active means binding response below about 49% or above about 150%; inconclusive means no clear call, values can overlap the other calls; inactive means in between.

Sequences of proteins named here, by UniProt entry; tags and fusion partners are left off.
UniProt P09471, whole entry, looked up: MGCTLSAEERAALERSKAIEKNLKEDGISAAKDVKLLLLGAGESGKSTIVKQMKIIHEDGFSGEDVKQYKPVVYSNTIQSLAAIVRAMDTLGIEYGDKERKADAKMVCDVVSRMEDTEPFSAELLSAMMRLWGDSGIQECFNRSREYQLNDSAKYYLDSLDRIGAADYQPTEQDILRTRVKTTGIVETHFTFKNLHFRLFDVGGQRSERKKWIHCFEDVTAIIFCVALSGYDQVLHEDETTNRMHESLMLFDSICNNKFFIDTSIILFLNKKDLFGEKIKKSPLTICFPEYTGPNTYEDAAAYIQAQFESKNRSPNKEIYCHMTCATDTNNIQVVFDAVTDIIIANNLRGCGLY

Target: Guanine nucleotide-binding protein G(o) subunit alpha (Homo sapiens) (UniProt P09471)
Assay: RGS7-Galphao binding modulators, primary screen, biochemical, multiplexed bead flow cytometry (AID 1439);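 further: fluorescent Galphao held in activated GDP-AlF4 state binding bead-coupled RGS7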
Settings: at 10 µM, actives lie on both sides

| SMILES | binding response (% of control) |
| --- | --- |
| O=C(c1ccccc1Br)N1CCN(c2ccc([N+](=O)[O-])c(N3CCOCC3)c2)CC1 | inconclusive: 103% |
| CCn1c(SCC(=O)N2CCN(c3ccccc3F)CC2)nnc1-c1ccoc1C | inactive: 97.2% |
| O=C(COc1nncc2ccccc12)NCC(F)(F)F | inactive: 96.3% |
| O=C(Nc1nccs1)C1(c2ccc(Cl)cc2)CC1 | inconclusive: 115% |
| COc1cccc(C(=O)/C=C2\Sc3ccccc3N2C)c1 | inconclusive: 79.1% |
| CCS(=O)(=O)c1cc([N+](=O)[O-])c(Sc2ccccc2NC(C)=O)s1 | inconclusive: -882% |
| O=C(Nc1ccc(F)cc1)C(=O)c1c(O)[nH]c2ccc([N+](=O)[O-])cc12 | inconclusive: 94.9% |
| CC(=O)Oc1c(/C=C(\C#N)C(N)=O)[nH]c2ccccc12 | inactive: 99.2% |
| CCC(O)CC(C(=O)NNc1ccccc1)C(=O)NNc1ccccc1 (stereo not drawn) | inconclusive: 78.5% |
| CCOC(=O)c1c(-c2cccs2)csc1NC(=O)CN(CC)CC | active: 41.9% |
| CC(=O)Nc1ccc(S(=O)(=O)Nc2nc3cc4c(cc3nc2Cl)OCCO4)cc1 | inconclusive: 94.4% |
| CCNS(=O)(=O)c1ccc(OC)c(C(=O)NC2CCCCC2)c1 | inconclusive: 94.3% |
| CCOc1c(Nc2ccc(C(C)C)cc2)c(=O)c1=O | inconclusive: 57.5% |
| CC(=O)Nc1ccc2c(c1)CCCC2=O | inconclusive: 82.1% |
| Cc1ccc(C)c2nc(SCC(=O)Nc3ccc4c(c3)OCO4)c(C#N)cc12 | inconclusive: 90.1% |
| Cc1cc(-c2ccccc2)n[nH]1 | inconclusive: 90.7% |
| CCCN1Cc2cccc(C(=O)Nc3ccc(CC)cc3)c2C1=O | inactive: 102% |
| COc1cc(-c2[nH]ncc2CN2CCN(c3cccc(C)n3)CC2)cc(OC)c1OC | inconclusive: 79.5% |
| Cc1ccc(C)c(N2CN(CCC3=CCCCC3)CNC2=S)c1 | inconclusive: -37.9% |
| CCCCc1nc2sc3c(=O)[nH]cnc3c2c2c1CCCC2 | inconclusive: 242% |
| C1CCCCCC(NCCN2CCNCC2)CCCCC1 | inconclusive: 100% |
| CC(Oc1ccc([N+](=O)[O-])cc1Cl)C(=O)Nc1ccc(C(N)=O)cc1 (stereo not drawn) | inconclusive: 117% |
| O=C(N/N=C/c1ccccn1)c1sc2ccccc2c1Cl | inconclusive: 106% |
| O=C1c2ccccc2C(=O)N1CCCCN(C(=O)c1ccc(Cl)s1)c1ccc(Cl)cc1 | inactive: 103% |

5 entries from above, bar-delimited:
SMILES | binding response (% of control)
O=C(Nc1ccc(F)cc1)C(=O)c1c(O)[nH]c2ccc([N+](=O)[O-])cc12 | inconclusive: 94.9%
CC(=O)Oc1c(/C=C(\C#N)C(N)=O)[nH]c2ccccc12 | inactive: 99.2%
CCC(O)CC(C(=O)NNc1ccccc1)C(=O)NNc1ccccc1 (stereo not drawn) | inconclusive: 78.5%
CCOC(=O)c1c(-c2cccs2)csc1NC(=O)CN(CC)CC | active: 41.9%
CC(=O)Nc1ccc(S(=O)(=O)Nc2nc3cc4c(cc3nc2Cl)OCCO4)cc1 | inconclusive: 94.4%

Next structures.

| SMILES | binding response (% of control) |
| --- | --- |
| Cc1cccn2c(=O)c(C=O)c(N3CCSCC3)nc12 | inconclusive: 82.2% |
| O=C(CN(C(=O)c1csnn1)c1cccc2c1CCCC2)NC1CCCC1 | inactive: 99.1% |
| CC(CC(=O)Nc1ccc(S(=O)(=O)N2CCOCC2)cc1)c1ccccc1 (stereo not drawn) | inconclusive: 115% |
| Cc1nc(-c2ccccc2OC(F)(F)F)[nH]c(=O)c1Cl | inconclusive: 144% |
| Cc1cccc(C(=O)NC(CC(=O)O)c2ccc(OC3CCCC3)cc2)c1[N+](=O)[O-] (stereo not drawn) | inactive: 101% |
| CCCC(=O)Nc1ccc(C(=O)NCc2ccccc2Cl)cc1 | inactive: 95.1% |
| CN1CCN(C(c2ccccn2)c2cc(Cl)c3cccnc3c2O)CC1 (stereo not drawn) | inconclusive: 79.9% |
| CC(=O)Nc1sc2c(c1CN1CCCC1)CCCC2 | inconclusive: 75.7% |
| CCN(CC)c1ccc(/C=C2\C(=O)N(c3nnc(C)c(=O)[nH]3)N=C2C)cc1 | inconclusive: 178% |
| O=C(COC(=O)CCc1nc2ccccc2c(=O)[nH]1)NC1CCS(=O)(=O)C1 (stereo not drawn) | inconclusive: 109% |
| COc1ccc(OC)c(NC(=O)c2nc3ccccc3s2)c1 | inconclusive: 102% |
| COc1cc(NC(=O)c2cnc(N)s2)cc(C(=O)Nc2cccc(C(F)(F)F)c2)c1 | inconclusive: 86.5% |
| Cn1nc(C(=O)OCC(=O)Nc2sccc2C(N)=O)c2ccccc2c1=O | inconclusive: 115% |
| Cc1cc(C(=O)Nc2nc3c(C)cccc3s2)c(C)o1 | inactive: 79.3% |
| N#Cc1ccccc1NC(=O)C1SC(=Nc2ccccc2)C(C(=O)Nc2ccc(Cl)cc2)=C1N (stereo not drawn) | inconclusive: 40.6% |
| O=C(CS(=O)(=O)c1ccc2ccccc2c1)N1CCCCCC1 | inactive: 108% |
| CC1CN(C(=O)CSc2nc(-c3ccc(F)cc3)cs2)CC(C)O1 (stereo not drawn) | inactive: 96.2% |
| CCC(=O)Nc1cccc2cccnc12 | inconclusive: 84% |
| COc1cccc(C2=NOC(C(=O)Nc3cc(C)on3)C2)c1OC (stereo not drawn) | inconclusive: 69.9% |
| CN1CCN(S(=O)(=O)c2ccc(NC(=S)NC(=O)C(C)(C)C)cc2)CC1 | inactive: 102% |
| NS(=O)(=O)c1ccc(NC(=O)COC(=O)c2cc(Cl)ccc2[N+](=O)[O-])cc1 | inconclusive: 115% |
| O=C(O)c1ccn2c(C(=O)c3ccc(Cl)cc3)c(-c3ccccc3)cc2c1 | inconclusive: 84% |
| O=C(O)c1cccc(-n2c(-c3cnccn3)n[nH]c2=S)c1 | inconclusive: 107% |
| O=C(O)c1cccnc1Sc1ccccc1Cl | inconclusive: 112% |

| SMILES | binding response (% of control) |
| --- | --- |
| COC(=O)CSc1nsc(SCC(=O)OC)c1C#N | inactive: 109% |
| O=Cc1cn(-c2ccccc2)nc1-c1cccnc1 | inconclusive: 95.6% |
| C/C(=N\NC(=O)c1cc(C)nc2ccccc12)c1cccs1 | inconclusive: 67.2% |
| CC(=O)NCC1(O)CCCC(C)C1 (stereo not drawn) | inconclusive: 84.2% |
| O=C1COc2ccc(C(=O)COc3ccc([N+](=O)[O-])cc3)cc2N1 | inconclusive: 250% |
| Cc1ccc(-c2n[nH]c(=S)n2/N=C/c2sccc2C)cc1 | inconclusive: 109% |
| COc1cc(C(=O)Nc2nnc(C)s2)c([N+](=O)[O-])cc1OC | inconclusive: 135% |
| CC/C(=N\NC(=O)OC)c1ccc(OC(F)F)cc1 | inconclusive: 119% |
| COc1cccc(CNC(=O)CN2C(=O)CSc3ccc(S(=O)(=O)N4CCCC4)cc32)c1 | inactive: 105% |
| CCCC(=O)NC(NC1CCS(=O)(=O)C1)C(Cl)(Cl)Cl (stereo not drawn) | active: 11.1% |
| CCc1ccc(NC(=O)CSc2ccccn2)cc1 | inactive: 96.2% |
| C/C(=N\NC(=O)c1ccc(COc2ccccc2)cc1)c1ccncc1 | inactive: 97.7% |
| CCOCc1cc(=O)[nH]c(SC)n1 | inconclusive: 113% |
| COc1cc(/C=C(\C#N)C(=O)NCc2ccccc2)ccc1OCc1ccc(C(=O)O)cc1 | inconclusive: 58.3% |
| Cn1cccc1/C=C1\SC(=Nc2ccc(O)cc2)NC1=O | inconclusive: 92.6% |
| CN(C)CCCNC(=O)c1cc(C(=O)c2ccc(F)cc2)c[nH]1 | inconclusive: 88.9% |
| Cc1ccccc1-n1cc(-c2ccc(Br)cc2)nc1SCC(N)=O | inconclusive: 37.4% |
| CC(C(=O)N1CCCc2ccccc21)N1CCN(c2ccccn2)CC1 (stereo not drawn) | inconclusive: 92.9% |
| COc1ccc(CN2CCOCCOCCOCCOCC2)cc1 | inconclusive: 140% |
| Cc1cnc(NC(=O)/C=C/c2ccc(Br)o2)s1 | inconclusive: 143% |
| CN(C)CCCNC(=O)C(=O)NCC1CCCO1 (stereo not drawn) | inactive: 98.7% |
| COCCNC(=O)C(=O)N/N=C(\C)CC(=O)Nc1cccc(C(F)(F)F)c1 | inconclusive: 56% |
| COC(=O)C1=C(N)Oc2cc(C)[nH]c(=O)c2C1c1ccc(Cl)cc1 (stereo not drawn) | inconclusive: 94.3% |
| CC(C)c1ccc(OCC(=O)NNC(=O)c2cnccn2)cc1 | inconclusive: -116% |

Part of the list above, reformatted.
SMILES | binding response (% of control)
CCNS(=O)(=O)c1ccc(OC)c(C(=O)NC2CCCCC2)c1 | inconclusive: 94.3%
CCOc1c(Nc2ccc(C(C)C)cc2)c(=O)c1=O | inconclusive: 57.5%

Next part:

| SMILES | binding response (% of control) |
| --- | --- |
| NC1=NC(=Nc2cccc(S(N)(=O)=O)c2)c2ccccc21 | inconclusive: 83.1% |
| CCN(CCNC(=O)CN(C)S(=O)(=O)c1cccc2nsnc12)c1ccccc1 | inactive: 109% |
| Cn1cc(C(=O)c2ccc(Cl)cc2Cl)cc1C(=O)N/N=C(\N)COc1ccc(Cl)cc1 | inconclusive: 94.2% |
| Cc1ccc(C2N=C(N)Nc3nc(=O)c4ccccc4n32)cc1 (stereo not drawn) | inconclusive: 66.2% |
| Cc1cc(O)c(C(=O)/C=C/c2cccc([N+](=O)[O-])c2)c(=O)o1 | inconclusive: 606% |
| O=C(N/N=C1\CCS(=O)(=O)c2ccc(F)cc21)c1ccc(O)cc1 | inconclusive: 116% |
| CCCCOC(=O)CSc1nc2ccccc2o1 | inconclusive: 55% |
| COC(C[C@@H]1O[C@@H]1C(=O)COCc1ccccc1)OC | inconclusive: 99.5% |
| CC(C)NC(=O)c1c(CSc2ccccc2)noc1C(=O)NCc1ccccc1 | inconclusive: 25% |
| CN(C)c1ccc(NC(=O)C(=O)C2C(=O)Nc3ccccc32)cc1 (stereo not drawn) | inconclusive: 99% |
| CC(Sc1nnnn1-c1ccc(O)cc1)c1nc2ccccc2c(=O)[nH]1 (stereo not drawn) | inconclusive: 46% |
| CCCCCCCC[n+]1c(C)n(-c2ccccc2)c2ccc(NC(C)=O)cc21 | inconclusive: 92.5% |
| O=C(O)CCC(=O)Nc1cc(C(F)(F)F)cc(C(F)(F)F)c1 | inconclusive: 131% |
| CC1=NN(C(=O)COc2cc(C)ccc2C(C)C)C(O)(c2ccccc2)C1 (stereo not drawn) | inconclusive: 109% |
| CCCCCCCC1CC(=O)C=C(C)C1C(=O)OCC (stereo not drawn) | inconclusive: 93.1% |
| CCN(CC)S(=O)(=O)c1cccc(NC(=O)COC(=O)c2ccc(Br)o2)c1 | inactive: 100% |
| CCOC(=O)Cn1c(=O)oc2cc(S(=O)(=O)N(C)c3ccc(OC)cc3)ccc21 | inconclusive: 94.4% |
| CC1(C(=O)NC2CCCCCCC2)CC1(Cl)Cl (stereo not drawn) | inactive: 100% |
| CN1C(=O)C2(c3ccccc31)c1c(oc3ccccc3c1=O)C(=O)N2CCCO (stereo not drawn) | inconclusive: -130% |
| CC(=O)c1c(C)nc(-c2ccc(Cl)cc2)nc1N | inconclusive: 99.2% |
| Cc1ccc2cc(CCNS(=O)(=O)c3ccc(F)cc3)c(=O)[nH]c2c1C | active: 45.8% |
